{"source": "PubChem BioAssay AID588324", "about": "(National Center for Advancing Translational Sciences (NCATS), 2011)", "note": "Inconclusive means that the source gave no clear call. Such entries were picked first, then a sample of the others. Potencies beside an inconclusive call are fits to weak or partial responses and may not hold up. The source made the active and inactive calls. The call rests on the fitted dose curve; in most records, active means well fitted inhibition curve with a large enough effect; inconclusive means small, poorly fitted or top-dose-only effect; inactive means flat fitted curve, though single readings scatter."}
{"test_system": "Trypanosoma cruzi 6-phosphofructokinase", "test": "Confirmatory Assay to Find Inhibitors of T. brucei phosphofructokinase: Counter Screen against T cruzi PFK", "conditions": "ADP-Glo luminescence, 45 min; series mostly up to 57.5 µM", "source_text": "Various species of the protozoan family Trypanosomatidae are responsible for a range of serious human diseases in tropical and subtropical areas of the world. […] Many of the disorders caused by trypanosomatids are fatal if left untreated, but most currently used drugs are inefficient and toxic. […] Oxidative metabolism involving the mitochondrial tricarboxylic acid cycle and oxidative phosphorylation are repressed in these parasites, and recent RNA interference (RNAi) experiments have shown that even partial depletion of certain individual glycolytic enzymes can lead to the death of cultured parasites. One such glycolytic enzyme, phosphofructokinase (PFK), catalyzes the formation of fructose-1,6-bisphosphate (F1,6BP) and ADP from fructose-6-phosphate (F6P) and ATP, and in many metabolic circumstances makes an important contribution to the control of flux through the glycolytic pathway. As a specific glycolytic target, PFK is particularly attractive as it catalyzes the first irreversible step in glycolysis, and structural and kinetic studies have shown very substantial and essential differences from corresponding host enzymes, allowing for the discovery of parasite-selective inhibitors. Confirmed qHTS active compounds were tested against T cruzi PFK. A luminescent biochemical assay was performed that used luciferase-based nucleotide detection (ADP-Glo, Promega) to examine the effect of identified actives against another trypanosomal isoform of PFK, namely Trypansoma cruzi, for target specificity. The assay is identical in concept to the T. brucei PFK qHTS assay, but instead uses the T. cruzi isoform of PFK (expressed and purified by U. of Edinburgh). NIH Molecular Libraries Probe Production Network [MLPCN] NIH Chemical Genomics Center [NCGC] Grant: 1 R03 MH092153-01 PI Name: Malcolm Walkinshaw, University of Edinburgh\nSubstrate buffer was dispensed into white, solid 1536-well plates at 3 uL/well in 0.1M triethanolamine (TEA) buffer, pH 8.0, containing final concentrations of 5 mM MgCl2, 0.01% Tween20, 0.6mM fructose-6-phosphate (F6P) and 0.1mM ATP. Then, 23nl of compounds or DMSO were delivered to each well using a pin tool. One uL of T. cruzi PFK (0.1M TEA, 0.01% Tween20, 0.1% bovine serum albumin (BSA) and […] PFK, final concentrations) was then dispensed, and plates were incubated at room temperature for 45 min. The luminescent detection reagent, ADP-Glo (Promega), was then added in two steps: the first reagent, ADP-Glo (which converts remaining uncatalyzed ATP), was added at 2.5uL/well and incubated for ten minutes at room temperature, and the second component, Kinase Detection reagent (which converts ADP to ATP as a substrate for luciferase-based luminescence), was added immediately after at 5uL/well, followed by one final ten minute room temperature incubation. The plates were measured on a ViewLux plate reader for luminescent signal using a clear filter with a one second exposure. The %Activity was determined from the corrected luminescence values. 1x (1.25nM) and 0x PFK enzyme controls (untreated) were included to normalize %Activity of identified inhibitors; 0x enzyme values corresponded to 100%Activity (full inhibition), while 1x PFK enzyme values were used to normalize 0% Activity (no inhibition)."}
{"smiles": "COc1ccc(CC(=O)Nc2ccc(S(=O)(=O)Nc3cc(C)on3)cc2)cc1C", "Potency": "inconclusive: 20.6 µM [inhibitor, partial curve, poor fit]"}
{"smiles": "Cc1cc(NC(=O)c2ccc(NC(=O)Cc3ccc(Cl)c(Cl)c3)cc2)no1", "Potency": "inactive"}
{"smiles": "Cc1cc(NS(=O)(=O)c2ccc(NC(=O)Cc3ccccc3)cc2)no1", "Potency": "inconclusive: 20.6 µM [inhibitor, partial curve]"}
{"smiles": "Cc1cc(NS(=O)(=O)C2CCN(C(=O)Cc3ccc(Cl)c(Cl)c3)CC2)no1", "Potency": "inconclusive: 13 µM [inhibitor, partial curve]"}
{"smiles": "Cc1cc(NS(=O)(=O)c2ccc(NC(=O)C(C)(C)c3ccc(Cl)c(Cl)c3)cc2)no1", "Potency": "inconclusive: 36.6 µM [inhibitor, partial curve]"}
{"smiles": "Cc1cc(NS(=O)(=O)c2ccc(NC(=O)c3ccc(Cl)c(Cl)c3)cc2)no1", "Potency": "inconclusive: 20.6 µM [inhibitor, partial curve]"}
